According to the supplement of paper PMC8728848:
The list shows a part of the results.

Legend:
Assay in all cases: glycan array binding signal (z-score within array); higher = stronger binding
Details in all cases: glycan notation: IUPAC condensed, linker removed
Gal6S(b1-4)Glc = target: Gal6S(b1-4)Glc
Procedure, shortened: (§1)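 Glycan array binding is given as a within-array Z-score, which can be read as non-binding when negative. The arrays, 3228 of them, came from the Consortium for Functional Glycomics database and were retained only where the protein sequence was available. Z-scores were averaged across arrays of the same protein sequence at different concentrations or buffers and across linkers.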

Gal6S(b1-4)Glc6S = target: Gal6S(b1-4)Glc6S
Procedure, shortened: as §1

Gal6S(b1-4)GlcNAc = target: Gal6S(b1-4)GlcNAc
Procedure, shortened: as §1

Gal6S(b1-4)GlcNAc6S = target: Gal6S(b1-4)GlcNAc6S
Procedure, shortened: as §1

GalNAc(a1-3)Gal = target: GalNAc(a1-3)Gal
Procedure, shortened: as §1

GalNAc(a1-3)GalNAc = target: GalNAc(a1-3)GalNAc
Procedure, shortened: as §1

[1] = target: GalNAc(a1-3)GalNAc(b1-3)Gal(a1-4)Gal(b1-4)Glc
Procedure, shortened: as §1

[2] = target: GalNAc(a1-3)GalNAc(b1-3)Gal(a1-4)Gal(b1-4)GlcNAc
Procedure, shortened: as §1

GalNAc(b1-3)Gal = target: GalNAc(b1-3)Gal
Procedure, shortened: as §1

[3] = target: GalNAc(b1-3)Gal(a1-4)Gal(b1-4)GlcNAc
Procedure, shortened: as §1

[4] = target: GalNAc(b1-3)Gal(a1-4)Gal(b1-4)GlcNAc(b1-3)Gal(b1-4)Glc
Procedure, shortened: as §1

[5] = target: GalNAc(b1-3)Gal(a1-6)Gal(b1-4)Glc
Procedure, shortened: as §1

GalNAc(b1-3)GalNAc = target: GalNAc(b1-3)GalNAc
Procedure, shortened: as §1

GalNAc(b1-3)GlcNAc = target: GalNAc(b1-3)GlcNAc
Procedure, shortened: as §1

GalNAc(b1-4)Gal(b1-4)Glc = target: GalNAc(b1-4)Gal(b1-4)Glc
Procedure, shortened: as §1

GalNAc(b1-4)GlcNAc = target: GalNAc(b1-4)GlcNAc
Procedure, shortened: as §1

[6] = target: GalNAc(b1-4)GlcNAc(b1-2)Man
Procedure, shortened: as §1

[7] = target: GalNAc(b1-4)GlcNAc(b1-2)Man(a1-3)[GalNAc(b1-4)GlcNAc(b1-2)Man(a1-6)]Man(b1-4)GlcNAc(b1-4)GlcNAc
Procedure, shortened: as §1

[8] = target: GalNAc(b1-4)GlcNAc(b1-3)GalNAc(b1-4)GlcNAc
Procedure, shortened: as §1

GalNAc(b1-4)GlcNAc6S = target: GalNAc(b1-4)GlcNAc6S
Procedure, shortened: as §1

GalNAc(b1-6)GalNAc = target: GalNAc(b1-6)GalNAc
Procedure, shortened: as §1

GalNAc3S(b1-4)GlcNAc = target: GalNAc3S(b1-4)GlcNAc
Procedure, shortened: as §1

GalNAc3S(b1-4)GlcNAc3S = target: GalNAc3S(b1-4)GlcNAc3S
Procedure, shortened: as §1

[9] = target: GalNAc3S(b1-4)[Fuc(a1-3)]GlcNAc
Procedure, shortened: as §1

GalNAc4S6S(b1-4)GlcNAc = target: GalNAc4S6S(b1-4)GlcNAc
Procedure, shortened: as §1

GalNAc6S(b1-4)GlcNAc = target: GalNAc6S(b1-4)GlcNAc
Procedure, shortened: as §1

Glc(a1-4)Glc = target: Glc(a1-4)Glc
Procedure, shortened: as §1

[10] = target: Glc(a1-4)Glc(a1-4)Glc(a1-4)Glc
Procedure, shortened: as §1

Glc(a1-6)Glc(a1-6)Glc = target: Glc(a1-6)Glc(a1-6)Glc
Procedure, shortened: as §1

[11] = target: Glc(a1-6)Glc(a1-6)Glc(a1-6)Glc
Procedure, shortened: as §1

Glc(b1-4)Glc = target: Glc(b1-4)Glc
Procedure, shortened: as §1

Glc(b1-6)Glc = target: Glc(b1-6)Glc
Procedure, shortened: as §1

GlcA(b1-3)Gal = target: GlcA(b1-3)Gal
Procedure, shortened: as §1

GlcA(b1-3)GlcNAc = target: GlcA(b1-3)GlcNAc
Procedure, shortened: as §1

GlcA(b1-6)Gal = target: GlcA(b1-6)Gal
Procedure, shortened: as §1

[12] = target: GlcA3S(b1-3)Gal(b1-4)GlcNAc(b1-2)Man
Procedure, shortened: as §1

[13] = target: GlcA3S(b1-3)Gal(b1-4)GlcNAc(b1-3)Gal(b1-4)Glc
Procedure, shortened: as §1

B1: Epa21 (Candida glabrata) (protein)
chain: MGSSHHHHHHSSGLVPRGSHMASTPNIESHPQGCSPVDTSGIKPGLKMDLYRFPITPPGTGCWSWDWLTVTPDFPRSGYWKWPKIAEVDGVVGPLHLDSGHPTCDPLTSVLPHGFNYLQSITTTNFTMVLHGYFVPKQSGKYTFEFKADDALLLNLGAGNAFSCCDYNNSQYNQGEYLAYAIWSKNNQTATLYLEKGIYYPIRVFYHNRCCGAYMDVVYYFNDSPIPNRDFSGLLFSIPDSDSCDANI
- glycan array binding signal (z-score) (Gal6S(b1-4)Glc): 0.513
- glycan array binding signal (z-score) (Gal6S(b1-4)Glc6S): 2.89
- glycan array binding signal (z-score) (Gal6S(b1-4)GlcNAc): 0.193
- glycan array binding signal (z-score) (Gal6S(b1-4)GlcNAc6S): 3.19
- glycan array binding signal (z-score) (GalNAc(a1-3)Gal): -0.735
- glycan array binding signal (z-score) (GalNAc(a1-3)GalNAc): -0.222
- glycan array binding signal (z-score) [1]: -0.632
- glycan array binding signal (z-score) [2]: -0.298
- glycan array binding signal (z-score) (GalNAc(b1-3)Gal): -0.045
- glycan array binding signal (z-score) [3]: -0.453
- glycan array binding signal (z-score) [4]: -0.035
- glycan array binding signal (z-score) [5]: -0.582
- glycan array binding signal (z-score) (GalNAc(b1-3)GalNAc): -0.617
- glycan array binding signal (z-score) (GalNAc(b1-3)GlcNAc): -0.422
- glycan array binding signal (z-score) (GalNAc(b1-4)Gal(b1-4)Glc): -0.222
- glycan array binding signal (z-score) (GalNAc(b1-4)GlcNAc): 0.066
- glycan array binding signal (z-score) [6]: -0.584
- glycan array binding signal (z-score) [7]: 0.288
- glycan array binding signal (z-score) [8]: 0.282
- glycan array binding signal (z-score) (GalNAc(b1-4)GlcNAc6S): 0.9
- glycan array binding signal (z-score) (GalNAc(b1-6)GalNAc): -0.563
- glycan array binding signal (z-score) (GalNAc3S(b1-4)GlcNAc): 0.345
- glycan array binding signal (z-score) (GalNAc3S(b1-4)GlcNAc3S): -0.059
- glycan array binding signal (z-score) [9]: -0.597
- glycan array binding signal (z-score) (GalNAc4S6S(b1-4)GlcNAc): 0.402
- glycan array binding signal (z-score) (GalNAc6S(b1-4)GlcNAc): -0.25
- glycan array binding signal (z-score) (Glc(a1-4)Glc): -0.414
- glycan array binding signal (z-score) [10]: -0.046
- glycan array binding signal (z-score) (Glc(a1-6)Glc(a1-6)Glc): -0.35
- glycan array binding signal (z-score) [11]: 0.578
- glycan array binding signal (z-score) (Glc(b1-4)Glc): -0.662
- glycan array binding signal (z-score) (Glc(b1-6)Glc): -0.72
- glycan array binding signal (z-score) (GlcA(b1-3)Gal): -0.233
- glycan array binding signal (z-score) (GlcA(b1-3)GlcNAc): 0.14
- glycan array binding signal (z-score) (GlcA(b1-6)Gal): 0.808
- glycan array binding signal (z-score) [12]: -0.081
- glycan array binding signal (z-score) [13]: -0.444
